PMC8103106
Positions count from the first letter of the chain named. Names may count otherwise. These are yes or no findings as the source states them, for the method shown. Binding calls can cover weak binding; strength is not graded here. Tags and fused reporters may be left off the sequences shown. One block for each binder: values may come before it.

Biological target: MBP-AP-3 (appendage domain of rat AP-3 delta fused to MBP) (rat)
Assay: pull-down; 50 µg MBP-AP-3 loaded on amylose resin for 30 min at 4°C; varying amounts of His-VPS41 incubated with the resin; bound protein read by quantitative fluorescence immunoblotting; both purified

binding: binds
B1: HIS-6 VPS41^WT (His-hVPS41, recombinant) (protein, UniProt P49754-1 1-854)
chain: MAEAEEQETGSLEESTDESEEEESEEEPKLKYERLSNGVTEILQKDAASCMTVHDKFLALGTHYGKVYLLDVQGNITQKFDVSPVKINQISLDESGEHMGVCSEDGKVQVFGLYSGEEFHETFDCPIKIIAVHPHFVRSSCKQFVTGGKKLLLFERSWMNRWKSAVLHEGEGNIRSVKWRGHLIAWANNMGVKIFDIISKQRITNVPRDDISLRPDMYPCSLCWKDNVTLIIGWGTSVKVCSVKERHASEMRDLPSRYVEIVSQFETEFYISGLAPLCDQLVVLSYVKEISEKTEREYCARPRLDIIQPLSETCEEISSDALTVRGFQENECRDYHLEYSEGESLFYIVSPRDVVVAKERDQDDHIDWLLEKKKYEEALMAAEISQKNIKRHKILDIGLAYINHLVERGDYDIAARKCQKILGKNAALWEYEVYKFKEIGQLKAISPYLPRGDPVLKPLIYEMILHEFLESDYEGFATLIREWPGDLYNNSVIVQAVRDHLKKDSQNKTLLKTLAELYTYDKNYGNALEIYLTLRHKDVFQLIHKHNLFSSIKDKIVLLMDFDSEKAVDMLLDNEDKISIKKVVEELEDRPELQHVYLHKLFKRDHHKGQRYHEKQISLYAEYDRPNLLPFLRDSTHCPLEKALEICQQRNFVEETVYLLSRMGNSRSALKMIMEELHDVDKAIEFAKEQDDGELWEDLILYSIDKPPFITGLLNNIGTHVDPILLIHRIKEGMEIPNLRDSLVKILQDYNLQILLREGCKKILVADSLSLLKKMHRTQMKGVLVDEENICESCLSPILPSDAAKPFSVVVFHCRHMFHKECLPMPSMNSAAQFCNICSAKNRGPGSAILEMKK

binding: binds
B2: HIS-6 VPS41^S285P (His-hVPS41 S285P, recombinant) (protein, UniProt P49754-1 1-854)
chain: B1 chain with S285P
